PubChem BioAssay AID1159578, Peter MacCallum Cancer Centre – 2015
The deposit covers about 18,000 reagents; this is a random part of them. About 1,030 of all reagents (5.7%) count as active. 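Inactive calls also include pools with fewer than 3300 nuclei, whose migration was not assessed.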 The raw values are shown without normalisation. A number with no mark means an inactive call. Not all columns of the deposit are shown. No sequences are given here.

Aim: 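siRNA pools altering how lymphatic endothelial cells close a scratch wound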 (primary screen)
Cell system: human lymphatic endothelial cells
Reagents: siRNA pool against human genes, 40 nM
Duration: 48 h after transfection
Read-out: 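Cells stained with dye and imaged after a scratch; covered wound area and nuclei counted, duplicates averaged, migration set against mock wells and turned into a robust z-score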
Scale: migration robust z-score: higher = faster migration into the scratch; nuclei per well: higher = more cells in the well
Hit rule: 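Pools averaging fewer than 3300 nuclei are never called; remaining pools count as changed when migration robust z lies outside -2 to 2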
Calls: active = migration changed; inactive = no migration change, or too few cells

For STT3B, the entry reads migration robust z-score -1.84; nuclei per well, duplicate mean 4928.
Depletion of GPR149 resulted in: migration robust z-score -0.42; nuclei per well, duplicate mean 6906.
PLCG1 scored migration robust z-score -2.21 (active); nuclei per well, duplicate mean 5078.
SST showed migration robust z-score -0.32; nuclei per well, duplicate mean 5608.
OR6M1 showed migration robust z-score -0.28; nuclei per well, duplicate mean 7012.
Silencing of PTPN3 gave: migration robust z-score -1.14; nuclei per well, duplicate mean 6481.
With knock-down of CEP63, the record shows migration robust z-score -0.19; nuclei per well, duplicate mean 3898.
ZNF568 gave migration robust z-score 0.01; nuclei per well, duplicate mean 6952.
After knock-down of DPF2, the screen gave migration robust z-score 0.62; nuclei per well, duplicate mean 6640.
Knock-down of TTC29 came out at: migration robust z-score -1.28; nuclei per well, duplicate mean 6220.
GGH gave migration robust z-score -0.26; nuclei per well, duplicate mean 5218.
Depletion of FABP1 came out at: migration robust z-score 1.61; nuclei per well, duplicate mean 5478.
STAMBP showed migration robust z-score -0.31; nuclei per well, duplicate mean 5991.
Depletion of TSC22D1 gave: migration robust z-score -1.77; nuclei per well, duplicate mean 5175.
After knock-down of CACNA1C, the record shows migration robust z-score -1.97; nuclei per well, duplicate mean 4348.
Depletion of CAMK1D resulted in: migration robust z-score -0.7; nuclei per well, duplicate mean 5672.
PSG11 showed migration robust z-score 0.46; nuclei per well, duplicate mean 6190.
Against TMEM132A, the entry reads migration robust z-score 0.68; nuclei per well, duplicate mean 4360.
Against MYBPH, the entry reads migration robust z-score -1.84; nuclei per well, duplicate mean 4266.
With knock-down of GMPR2, the record shows migration robust z-score -0.16; nuclei per well, duplicate mean 5328.
ATOH1 scored migration robust z-score -0.37; nuclei per well, duplicate mean 6118.

Only “migration robust z-score”, for 2 of the entries above:
ZNF568	0.01
DPF2	0.62
